Measured values: PubChem BioAssay AID330 (DTP/NCI, 2004)
The list does not hold the whole screen: it is rich in T/C values a quarter to a half above the control, in often repeated tests (any T/C) and in doses without a T/C. Further doses and runs are listed elsewhere. T/C is the treated group as % of the vehicle group. Some entries give survivors of the animals treated and no T/C: the source files T/C as zero there, which appears to mark a toxic dose or a test without result, not a measured value. Some survivor counts are full or nearly so, which does not show that the dose was tolerated: survival well below the control is almost never listed, so the zero probably covers shortened survival too. Survivors were counted at the toxicity check, usually on the fifth day, unless a day is given; later deaths do not show. Schedule codes are those of the source, read here as Q, the interval in days (D) or hours (H), X, the number of doses. Some entries hold several experiments; their values stand side by side, smallest first. Where survival is the endpoint, the PubChem record calls one and a half times the control and up active, and a quarter to a half above the control has no call in these data; cut-offs in other NCI protocols can differ.

System: P388 leukemia ip, CD2F1 mice, survival T/C
Assay: NCI In Vivo Anticancer Drug Screen. Data for tumor model P388 Leukemia (intraperitoneal) in CD2F1 (CDF1) mice
Details: T/C endpoint: median survival time, higher T/C = longer survival
[1] = dose: 100.0 mg/kg/injection, schedule: Q01DX009 (ip), vehicle: saline with Tween-80

SMILES: COC(=O)C1c2cc3c(c(O)c2C(OC2OC(C)C(OC)C(C)(OC)C2OC)CC1(C)O)C(=O)c1c(O)cc2c(c1C3=O)OC1OC2(C)C(OC(C)=O)C(N(C)C)C1OC(C)=O (centres undefined)
- T/C (dose: 3.12 mg/kg/injection, schedule: Q04DX003 (ip), vehicle: other): 147 % of control
- survivor count (dose: 6.25 mg/kg/injection, schedule: Q04DX003 (ip), vehicle: other): 5 of 6
- survivor count (dose: 12.5 mg/kg/injection, schedule: Q04DX003 (ip), vehicle: other): 1 of 6 and 3 of 6
- survivor count (dose: 25.0 mg/kg/injection, schedule: Q04DX003 (ip), vehicle: other): 0 of 6 and 1 of 6
- survivor count (dose: 50.0 mg/kg/injection, schedule: Q04DX003 (ip), vehicle: other): 0 of 6 and 1 of 5
- survivor count (dose: 100.0 mg/kg/injection, schedule: Q04DX003 (ip), vehicle: other): 1 of 6

SMILES: C/C=C/C=C\C=C/C(O)CC(OP(=O)(O)O)C(C)(O)/C=C/C1CC=CC(=O)O1 (centres undefined)
- T/C (dose: 0.38 mg/kg/injection, schedule: Q01DX005 (ip), vehicle: water): 135 % of control
- T/C (dose: 0.75 mg/kg/injection, schedule: Q01DX005 (ip), vehicle: water): 135 % of control
- T/C (dose: 1.5 mg/kg/injection, schedule: Q01DX005 (ip), vehicle: water): 138 % of control
- T/C (dose: 3.0 mg/kg/injection, schedule: Q01DX005 (ip), vehicle: water): 130 and 148 % of control
- T/C (dose: 3.12 mg/kg/injection, schedule: Q01DX005 (ip), vehicle: water): 140 % of control
- T/C (dose: 6.0 mg/kg/injection, schedule: Q01DX005 (ip), vehicle: water): 139 % of control
- survivor count (dose: 6.25 mg/kg/injection, schedule: Q01DX005 (ip), vehicle: water): 0 of 6
- survivor count (dose: 12.5 mg/kg/injection, schedule: Q01DX005 (ip), vehicle: water): 0 of 6
- survivor count (dose: 25.0 mg/kg/injection, schedule: Q01DX005 (ip), vehicle: water): 0 of 6
- survivor count (dose: 50.0 mg/kg/injection, schedule: Q01DX005 (ip), vehicle: water): 0 of 6

SMILES: COc1cc2c(cc1OC)CN1CSc3cc(OC)c(OC)cc3C1C2 (centres undefined)
- survivor count (dose: 400.0 mg/kg/injection, schedule: Q01DX001 (ip), vehicle: saline with Tween-80): 6 of 6

SMILES: CC1(C)N=C(N)N=C(N)N1c1ccc(OCC(=O)Nc2ccc(S(=O)(=O)F)cc2)c(Cl)c1
- survivor count (dose: 400.0 mg/kg/injection, schedule: Q04DX003 (ip), vehicle: saline): 6 of 6

SMILES: C=CC(=O)OCCOCN(COCCOC(=O)C=C)c1nc(N(COCCOC(=O)C=C)COCCOC(=O)C=C)nc(N(COCCOC(=O)C=C)COCCOC(=O)C=C)n1
- survivor count (dose: 200.0 mg/kg/injection, schedule: Q01DX005 (ip), vehicle: saline with Tween-80): 1 of 6

SMILES: Cc1cnc2ccccc2c1/C=C/c1ccc(N(C)C)cc1
- T/C [1]: 140 % of control

SMILES: COc1ccc(C/C=N/O)c(OC)c1
- survivor count (dose: 50.0 mg/kg/injection, schedule: Q01DX009 (ip), vehicle: other): 5 of 5
- survivor count (dose: 200.0 mg/kg/injection, schedule: Q01DX009 (ip), vehicle: other): 5 of 5

SMILES: CC(=O)O.CC(=O)O.[S-]CCN1CCOCC1.[Zn+2]
- survivor count (dose: 50.0 mg/kg/injection, schedule: Q01DX009 (ip), vehicle: Klucel (hydroxypropylcellulose) (HPC)): 0 of 6 and 2 of 6
- survivor count (dose: 100.0 mg/kg/injection, schedule: Q01DX009 (ip), vehicle: Klucel (hydroxypropylcellulose) (HPC)): 0 of 6
- survivor count (dose: 200.0 mg/kg/injection, schedule: Q01DX009 (ip), vehicle: Klucel (hydroxypropylcellulose) (HPC)): 0 of 6

SMILES: CCCCCCCN(CCCCCCC)CC(O)c1c(OC)c2ccccc2c2ccccc12 (centres undefined)
- survivor count [1]: 6 of 6

SMILES: FC(F)(F)c1ccc(NC(=S)SCc2ccc3c(c2)OCO3)cc1
- survivor count (dose: 200.0 mg/kg/injection, schedule: Q01DX009 (ip), vehicle: suspension in saline): 5 of 6

SMILES: CCNCC1COc2cccc(OCC)c2O1 (centres undefined)
- survivor count (dose: 200.0 mg/kg/injection, schedule: Q04DX002 (ip), vehicle: saline): 2 of 6
- survivor count (dose: 400.0 mg/kg/injection, schedule: Q04DX002 (ip), vehicle: saline): 0 of 6
